In PubChem BioAssay AID493014 (National Center for Advancing Translational Sciences (NCATS), 2011):
Some of the results follow. Further columns of the screen follow, without active or inactive calls. Compounds called inactive in the main read-out are mostly missing here. Potencies come from curve fits of mixed quality, noted in brackets.

Assay: qHTS Assay to Find Inhibitors of Chronic Active B-Cell Receptor Signaling
Conditions: ABC-DLBCL IkBa-CBG/CBR reporter, luminescence ratio (green luciferase fused to IkBa over red control in TMD8 lymphoma cells), 4 h
Outline: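 Doxycycline induced both beetle luciferases in TMD8 lymphoma cells; IKK-driven degradation limits the IkappaBalpha-fused green signal, while red luminescence normalises for cell number and nonspecific effects. Compounds tested up to 46 uM, 4 hrs.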

[1] = measured here: CBR red luminescence, cell number
[2] = measured here: IkBa-CBG green luminescence

SMILES	AC50 [1]	AC50 [2]
Cc1ccc2c(c1)[C@H]1[C@H](CO2)[C@H](c2ccccc2)[C@]2(C)C(=O)Nc3cc(F)ccc3C(=O)N12	4.11 µM [falling, full curve]	–
CN(C)c1ccc(/C=C(\Cl)c2nc3ccccc3s2)cc1	20.6 µM [falling, single point]	–
CCOc1ccc(-c2cc(CCCC(=O)NCCCOC)no2)cc1	8.91 µM [falling, partial curve, poor fit]	–
CCCCCCCNC(=O)C1(CC2CC(c3cccc(Br)c3)=NO2)CCN(C(=O)c2cc(OCC)c(OCC)c(OCC)c2)CC1 (stereo not given)	–	6.51 µM [rising, partial curve, poor fit]
CCC(C(=O)N1CCOCC1)n1nc(C)n2c(cc3cc(C)ccc32)c1=O (stereo not given)	11.2 µM [rising, partial curve, poor fit]	–
CC(=O)c1ccc(N2Cc3ccccc3/C2=N\C(=O)Nc2ccc(Cl)cc2)cc1	8.2 µM [rising, partial curve, poor fit]	–
COc1ccc(NC(=O)c2ccc(CNS(=O)(=O)c3cccc(OC)c3)cc2)cc1	29.1 µM [rising, single point]	–
C/C(=N\NC(=O)c1ccccc1O)c1cccs1	1.78 µM [falling, full curve, poor fit]	–
CN(C)C1=C(Cl)C(=O)N(c2ccc(Cl)c(Cl)c2)C1=O	12.6 µM [falling, single point]	–
COc1ccc(N(C)C(=O)c2cc3c(s2)-c2ccccc2S(=O)(=O)C3)cc1	0.251 µM [rising, full curve, poor fit]	–
Cc1cc([N+](=O)[O-])ccc1N=Nc1c(N)[nH]n(-c2ccccc2)c1=O	0.631 µM [falling, full curve]	–
COc1cccc(NC(=O)c2cc3ccccc3o/c2=N\O)c1	4.47 µM [falling, full curve]	–
CCc1cc(=O)oc2cc(C)cc(OCC(=O)NCCc3c[nH]c4ccccc34)c12	22.4 µM [falling, single point]	–
CSCCC(NC(=O)COc1ccccc1)C(=O)N1CCOCC1 (stereo not given)	29.1 µM [rising, single point]	–
O=C(CNC(=O)c1cccc(F)c1)OCc1cc(=O)n2cc(Br)ccc2n1	16.4 µM [rising, single point]	–
COCC(C)n1c(C)cc(C(=O)COc2ccc(N(C)S(=O)(=O)c3ccc(NC(C)=O)cc3)cc2)c1C (stereo not given)	0.00411 µM [rising, full curve, poor fit]	–
Cc1cccc(CS(=O)(=O)Cc2ccc(C(=O)NCc3ccc(F)cc3)o2)c1	17.8 µM [rising, single point]	–
Cn1cc(/C=N\NC(=O)C2COc3ccccc3O2)c2ccccc21 (stereo not given)	23.1 µM [rising, partial curve, poor fit]	–
CCCCOc1ccc(CSC(=N)N)cc1Cl	11.2 µM [falling, partial curve, poor fit]	–
COc1cccc(NC(=O)c2cnc(SCC(=O)N3CCCc4ccccc43)n(C)c2=O)c1	15.8 µM [falling, partial curve, poor fit]	–
Cc1cccc(OCC(=O)N2CCC3(CC2)CC(=O)c2ccccc2O3)c1	20.6 µM [falling, single point]	–

Single entries from the entries so far:
Value of `CSCCC(NC(=O)COc1ccccc1)C(=O)N1CCOCC1` (stereo not given) under AC50 [1]: 29.1 µM [rising, single point]
Value of `O=C(CNC(=O)c1cccc(F)c1)OCc1cc(=O)n2cc(Br)ccc2n1` under AC50 [1]: 16.4 µM [rising, single point]

(list continues)

SMILES	AC50 [1]	AC50 [2]
CCOc1ccc(C(=O)SC2=NCCS2)cc1	10.3 µM [falling, partial curve]	–
O=C(CNC(=O)c1cccs1)N=Nc1c(O)[nH]c2ccc([N+](=O)[O-])cc12	17.8 µM [falling, single point]	–
Cn1cccc1CC(=O)NNC(=S)NC(=O)c1ccc(F)cc1	35.5 µM [falling, partial curve, poor fit]	–
COc1cccc(NC(=O)CSc2nnc(-c3ccc(C)cc3)o2)c1	1.84 µM [falling, full curve]	–
O=C(NCC(=O)N(c1ccccc1F)C(C(=O)NCC1CCCO1)c1ccccc1)c1ccco1 (stereo not given)	16.4 µM [rising, single point]	–
Cc1ccccc1C(=O)NNC(=O)c1cccc(Br)c1	12.6 µM [falling, partial curve, poor fit]	–
COc1ccc(OC)c(NC=C2C(=O)OC(C)(C)OC2=O)c1	8.91 µM [falling, partial curve, poor fit]	–
O=C(NC(=S)N1CCN(c2ccc(Cl)cc2[N+](=O)[O-])CC1)c1ccco1	0.146 µM [rising, full curve, poor fit]	–
Cc1ccc(-c2nnc(COC(=O)c3cccs3)o2)cc1	0.398 µM [rising, full curve]	–
Cc1ccc(S(=O)(=O)N2C(=O)CCC2C(=O)O/N=C(\N)c2ccccc2)cc1 (stereo not given)	3.55 µM [rising, full curve, poor fit]	–
OCCCNc1nccc(-c2cc(Nc3cccc(Cl)c3)ncn2)n1	4.47 µM [falling, full curve, poor fit]	–
CCOC(=O)c1ccc(Nc2c(-c3ccc(N(C)C)cc3)nc3nc[nH]n23)cc1	8.91 µM [falling, partial curve, poor fit]	–
COCCCNc1oc(-c2ccccc2Cl)nc1C#N	22.4 µM [rising, single point]	–
Clc1ccc(-c2c[n+](Cc3ccc(Cl)cc3Cl)c3n2CCCCC3)cc1	15.8 µM [falling, single point]	–
Cn1c(=O)c2cc(S(=O)(=O)Nc3cccc(F)c3)ccc2n(C)c1=O	29.1 µM [falling, single point]	–
CSc1nnc(C)c(=O)n1COC(=O)c1cc(Cl)ccc1[N+](=O)[O-]	35.5 µM [falling, single point]	–
NC(=O)c1c(/N=C/c2cccnc2)sc2c1CCCC2	0.112 µM [rising, full curve, poor fit]	–
Cc1ccc(Cn2cc(C(=O)NN)c(=O)c3ccc(F)cc32)cc1	–	35.5 µM [falling, single point]
O=C(NCCN1C(=O)C2C3C=CC(C3)C2C1=O)Nc1cccnc1 (stereo not given)	3.26 µM [rising, single point]	–
N#CC(C(=O)c1ccccc1)=C1SCCS1	3.98 µM [rising, partial curve, poor fit]	6.31 µM [falling, single point]
Cc1ccc(N(CC(=O)NC(C)(C)C)C(=O)CCC(=O)Nc2nccs2)c(C)c1	35.5 µM [falling, single point]	–

SMILES	AC50 [1]	AC50 [2]
CCN(CC)S(=O)(=O)c1ccc(N2CCCC2)c(NC(=O)C2CCCCC2)c1	6.31 µM [rising, single point]	–
CC(=O)N1CCN(c2ccc(NC(=O)c3ccc(Cl)cc3)cc2)CC1	35.5 µM [rising, single point]	–
COC(=O)c1ccc(NC(=O)CSc2nccn2CCc2ccccc2)cc1	29.1 µM [rising, single point]	–
CC(NC(=O)c1cccs1)c1nnc(SCc2ccc(Cl)cc2Cl)n1C (stereo not given)	7.31 µM [falling, partial curve, poor fit]	–
O=C(COC(=O)c1cc([N+](=O)[O-])ccc1N1CCOCC1)c1ccc(F)cc1	23.1 µM [rising, single point]	–
N#Cc1cc(-c2ccccc2)oc1/N=C/c1ccccc1O	20.6 µM [falling, partial curve, poor fit]	–
Cc1ccc(-c2noc(C3CCCN(C(=O)c4ccc(C(C)(C)C)cc4)C3)n2)o1 (stereo not given)	6.31 µM [rising, single point]	–
CCn1c(CNc2ccccc2Cl)nnc1SCC(=O)NCc1ccccc1	17.8 µM [rising, partial curve, poor fit]	–
FC(F)(F)c1cccc(CN2CCC(c3cc(-c4cccs4)n[nH]3)CC2)c1	11.2 µM [rising, partial curve, poor fit]	17.8 µM [falling, single point]
CC(=O)Nc1ccc(S(=O)(=O)N2CCN(Cc3ccncc3)CC2)cc1	29.1 µM [rising, single point]	–
CCOc1ccccc1CNS(=O)(=O)c1ccc(-c2cnc(C3CC3)o2)cc1	31.6 µM [rising, single point]	12.6 µM [falling, partial curve]
COc1ccc(-n2c(C)nc3c(cnn3-c3ccc(C)cc3)c2=O)cc1	12.6 µM [rising, partial curve, poor fit]	–
CC(=O)N1CCC2(CC1)C/C(=N\NC(=S)Nc1ccccc1C)c1cc(O)ccc1O2	22.4 µM [falling, single point]	–
CCc1c(C(=O)N/N=C/c2ccsc2)csc1C	2.59 µM [rising, full curve]	–
CC(=O)c1c(C)[nH]c(C(=O)N2c3ccccc3CC2C)c1C (stereo not given)	17.8 µM [rising, partial curve, poor fit]	–
Cc1cc(=O)c(C(=O)Nc2cccc(C(=O)NC3CC3)c2)nn1-c1ccccc1Cl	7.31 µM [rising, partial curve, poor fit]	–
CCOc1cc(C2CC(=O)Nc3cc(C)c(C)cc32)ccc1O (stereo not given)	35.5 µM [falling, single point]	–
CC1CCCC(C)N1S(=O)(=O)c1ccc(NC(=O)CNCC2CCCO2)cc1 (stereo not given)	3.55 µM [falling, partial curve, poor fit]	–
Cc1ccsc1/C=N/NC(=O)c1ccco1	29.1 µM [falling, single point]	–
Cc1cc(C(=O)Cn2nc(C(=O)O)c3ccccc3c2=O)c(C)n1-c1ccc(OC(F)F)cc1	15.8 µM [falling, single point]	–

Given as labelled records: three of the compounds above.
CCN(CC)S(=O)(=O)c1ccc(N2CCCC2)c(NC(=O)C2CCCCC2)c1
  AC50 [1]: 6.31 µM [rising, single point]
CCn1c(CNc2ccccc2Cl)nnc1SCC(=O)NCc1ccccc1
  AC50 [1]: 17.8 µM [rising, partial curve, poor fit]
CCc1c(C(=O)N/N=C/c2ccsc2)csc1C
  AC50 [1]: 2.59 µM [rising, full curve]
